# Primary screen of a compound library

Sequences of proteins named here, by UniProt entry; tags and fusion partners are left off. Residues count along the entry.
UniProt Q8IDJ8, 1-583: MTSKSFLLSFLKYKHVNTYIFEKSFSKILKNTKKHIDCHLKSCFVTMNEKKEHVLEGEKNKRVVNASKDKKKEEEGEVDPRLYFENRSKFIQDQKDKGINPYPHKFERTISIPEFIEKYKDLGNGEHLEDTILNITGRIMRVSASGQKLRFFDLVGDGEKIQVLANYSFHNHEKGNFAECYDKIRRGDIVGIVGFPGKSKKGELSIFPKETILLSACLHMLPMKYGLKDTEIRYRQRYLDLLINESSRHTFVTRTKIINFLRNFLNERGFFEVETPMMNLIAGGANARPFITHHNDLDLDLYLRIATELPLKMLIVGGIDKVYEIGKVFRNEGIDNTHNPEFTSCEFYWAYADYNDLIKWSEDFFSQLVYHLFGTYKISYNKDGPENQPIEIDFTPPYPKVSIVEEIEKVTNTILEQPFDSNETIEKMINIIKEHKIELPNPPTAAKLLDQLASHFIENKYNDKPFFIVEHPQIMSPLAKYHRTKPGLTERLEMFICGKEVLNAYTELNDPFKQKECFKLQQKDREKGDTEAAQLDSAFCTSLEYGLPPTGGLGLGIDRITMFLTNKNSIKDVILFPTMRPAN
UniProt I6X8D2, whole entry: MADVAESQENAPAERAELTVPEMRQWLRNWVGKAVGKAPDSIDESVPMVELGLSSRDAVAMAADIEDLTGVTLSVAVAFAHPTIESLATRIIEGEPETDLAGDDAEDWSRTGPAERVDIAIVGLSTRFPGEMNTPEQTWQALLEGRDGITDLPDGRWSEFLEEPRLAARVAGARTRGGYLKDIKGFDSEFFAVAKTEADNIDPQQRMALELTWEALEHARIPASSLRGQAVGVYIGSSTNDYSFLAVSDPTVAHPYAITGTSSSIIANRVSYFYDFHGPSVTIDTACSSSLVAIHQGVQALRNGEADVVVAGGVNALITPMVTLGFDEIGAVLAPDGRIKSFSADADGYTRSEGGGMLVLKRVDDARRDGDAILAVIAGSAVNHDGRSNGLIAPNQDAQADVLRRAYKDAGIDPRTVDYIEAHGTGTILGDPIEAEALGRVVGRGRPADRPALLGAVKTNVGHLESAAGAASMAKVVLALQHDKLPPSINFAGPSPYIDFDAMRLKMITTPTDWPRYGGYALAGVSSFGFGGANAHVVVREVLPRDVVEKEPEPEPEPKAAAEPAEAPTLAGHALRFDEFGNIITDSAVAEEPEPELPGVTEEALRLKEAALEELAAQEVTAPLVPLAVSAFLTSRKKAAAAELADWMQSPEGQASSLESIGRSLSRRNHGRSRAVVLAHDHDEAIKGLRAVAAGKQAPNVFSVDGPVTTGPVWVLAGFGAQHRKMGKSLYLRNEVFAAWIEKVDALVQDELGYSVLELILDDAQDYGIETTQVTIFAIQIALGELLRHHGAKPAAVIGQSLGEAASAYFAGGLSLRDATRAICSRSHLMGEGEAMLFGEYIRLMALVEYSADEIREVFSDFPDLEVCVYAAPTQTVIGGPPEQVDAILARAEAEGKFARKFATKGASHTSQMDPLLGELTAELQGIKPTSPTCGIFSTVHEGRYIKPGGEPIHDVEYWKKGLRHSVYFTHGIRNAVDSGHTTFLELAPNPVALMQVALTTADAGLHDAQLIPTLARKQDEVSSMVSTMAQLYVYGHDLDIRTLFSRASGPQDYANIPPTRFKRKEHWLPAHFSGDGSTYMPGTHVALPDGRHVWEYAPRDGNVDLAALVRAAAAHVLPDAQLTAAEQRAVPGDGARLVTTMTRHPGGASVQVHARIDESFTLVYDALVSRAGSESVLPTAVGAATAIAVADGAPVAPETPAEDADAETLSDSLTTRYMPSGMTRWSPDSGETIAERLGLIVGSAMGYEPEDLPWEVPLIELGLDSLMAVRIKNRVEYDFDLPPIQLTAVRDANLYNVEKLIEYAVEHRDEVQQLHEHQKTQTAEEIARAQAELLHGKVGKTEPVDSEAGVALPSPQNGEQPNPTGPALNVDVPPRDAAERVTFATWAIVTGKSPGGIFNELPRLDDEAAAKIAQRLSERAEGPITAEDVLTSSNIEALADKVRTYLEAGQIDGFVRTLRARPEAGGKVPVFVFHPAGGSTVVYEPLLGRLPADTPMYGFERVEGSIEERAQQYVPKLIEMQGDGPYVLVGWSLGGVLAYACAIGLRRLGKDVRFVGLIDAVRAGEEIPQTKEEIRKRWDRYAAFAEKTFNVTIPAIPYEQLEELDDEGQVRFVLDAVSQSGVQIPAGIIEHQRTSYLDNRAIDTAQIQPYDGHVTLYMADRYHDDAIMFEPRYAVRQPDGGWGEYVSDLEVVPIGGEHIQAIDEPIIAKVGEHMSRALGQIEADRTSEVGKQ
UniProt P9WPC5, whole entry: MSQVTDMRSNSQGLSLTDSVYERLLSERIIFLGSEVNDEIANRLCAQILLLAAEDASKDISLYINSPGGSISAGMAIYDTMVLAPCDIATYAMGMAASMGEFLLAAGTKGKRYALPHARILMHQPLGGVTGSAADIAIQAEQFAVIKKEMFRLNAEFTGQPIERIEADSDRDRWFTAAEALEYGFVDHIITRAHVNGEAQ
UniProt P9WPC3, whole entry partner: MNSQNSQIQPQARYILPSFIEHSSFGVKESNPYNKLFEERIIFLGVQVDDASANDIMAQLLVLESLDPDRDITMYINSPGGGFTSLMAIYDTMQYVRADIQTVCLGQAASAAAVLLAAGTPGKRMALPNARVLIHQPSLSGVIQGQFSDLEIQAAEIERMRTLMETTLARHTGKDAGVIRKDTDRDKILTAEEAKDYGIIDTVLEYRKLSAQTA

Data taken from ChEMBL document CHEMBL3988442, “University of Dundee, Small-Polar-MMV Screening Library” (2021).

PfKRS1: 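Lysine-tRNA ligase, Plasmodium falciparum 3D7 (UniProt Q8IDJ8). Enzyme assay of the cytosolic lysyl-tRNA synthetase in 384-well plates, read by luminescence. Concentration: 30 µM. Direction is inferred from only a few compounds that gave an IC50; most scored high, so higher reads as stronger inhibition. Of about 69,000 compounds tested this way, about 49 (0.071%) reached 50% or more in at least one test.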
Pks13 thioesterase: 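Enzyme assay of the thioesterase domain of polyketide synthase 13; the read-out is not stated. Target: Polyketide synthase Pks13, Mycobacterium tuberculosis (UniProt I6X8D2). Tested at 30 µM. Higher reads as stronger inhibition (inferred from which compounds were picked for retests). Size under these conditions: about 67,000 compounds, about 300 of them at 50% or above in at least one test.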
ClpP1P2: 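Protease assay of ClpP1P2, read by the AMC dye that it sets free. Target: ClpP1P2, Mycobacterium tuberculosis (UniProt P9WPC5 and UniProt P9WPC3). Concentration: 50 µM. Direction is inferred from only a few compounds that gave an IC50; most scored high, so higher reads as stronger inhibition. Most other retested compounds had strongly negative values. Size under these conditions: about 69,000 compounds, about 10 of them at 50% or above in at least one test.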

Each number is a percent effect as filed.
The controls that fix the scale are not given in the record; negative values are as filed.
This is an unselected part of the compounds tested.
A dash means the value is not listed here; it may have been measured.

compound,PfKRS1,Pks13 thioesterase,ClpP1P2
O=C(c1cc(Cl)c2c(c1)OCO2)N1CCN(c2cnccn2)CC1,3.997,22.39,-4.49
Cc1ccc(NC2CCN(C(=O)COc3ccccc3)CC2)nn1,0.8265,0.05411,-11.18
CN(Cc1ccccc1O)C(=O)Nc1cc(F)cc(N2CCCC2)c1,2.397,-3.996,4.974
Cc1noc(C)c1CCC(=O)N1CCn2cccc2C1C (centres undefined),3.936,-10.68,3.853
Cc1nn(C)c(N2CCOCC2)c1CNC1CCc2ccccc2C1 (centres undefined),12.62,-34.41,4.699
O=C(c1ccc(=O)[nH]n1)N1CCCC(O)(CN2CCC(F)(F)CC2)CC1 (centres undefined),2.237,-,-3.112
CN(C)c1ccccc1CN1CCCC(N2CCCC2=O)C1 (centres undefined),1.992,-12.5,-7.341
O=C(c1ccnc(N2CCOC(C(F)(F)F)C2)c1)N1CCOCC1 (centres undefined),-0.6635,0.2972,-0.3119
CCc1cnc(N2CC[C@H]3[C@@H]2CCC(=O)N3c2ccccc2)nc1,0.355,-13.31,3.991
CC(C)Oc1ccc(C(=O)N2CCCSCC2CN(C)C)cc1 (centres undefined),-0.9923,-24.85,-2.128
Cc1nccn1Cc1nnc(C2CCCN(c3cnccn3)C2)n1C (centres undefined),2.178,-1.329,-10.59
CS(=O)(=O)N1CCC2(CC1)CN(CC1CC1)CC21CCNC1=O (centres undefined),3.648,-18.75,-12.53
CC1CN(C)c2ccccc2N(C(=O)c2ccc(=O)n(C)c2)C1 (centres undefined),-1.371,2.406,17.33
COc1ccc(C(=O)N2C[C@@H](NC(=O)N(C)C)[C@H](C(C)C)C2)c(OC)n1,-1.464,-7.867,7.061
CC(NC(=O)C1=NN(C)C(=O)CC1)c1ccc(Cl)cc1Cl (centres undefined),57.78,-17.46,1.755
O=C1N(c2ccsc2)CCC12CCCN(c1ncc(F)cn1)C2 (centres undefined),4.417,5.806,1.943
COCc1nc(N(C)C)ncc1C(=O)NC(C)C,-0.2449,-34.62,-1.81
CCOc1ccc(NC(=O)c2cc3c([nH]c2=O)CCC3)cc1,6.116,-2.089,-6.774
O=C(N[C@@H]1CCN(C(=O)C2CCOCC2)C[C@H]1O)c1ccccn1,0.5116,-26.86,3.36
O=S(=O)(NC1=NCN(CCc2cccs2)CN1)c1ccc(F)cc1,9.178,-18.99,7.942
CCO[C@@H]1CCN(C(=O)N(C)C)[C@@H]1Cc1cnn(C)c1,1.261,-2.965,-1.538
CCOc1cc(N2CCN(C(=O)c3ccc(OC)cc3)CC2)nc(C)n1,-2.153,-6.287,14.71
CCc1c(C(=O)O)nnn1-c1cccc(C)c1C,4.551,-7.942,11.44
CCc1nc(CC(=O)N2CCC(C(=O)N3CCCCC3)CC2)cs1,0.7664,-4.109,-14.3
CC(O)CN1CCN(C(=O)c2cccn2Cc2ccncc2)CC1 (centres undefined),2.785,-18.93,-1.572
Cc1noc(C)c1-c1cnc(CC2CCN(C(=O)c3cc[nH]n3)C2)cn1 (centres undefined),-3.628,-37.15,4.627
Cc1cc(CN(C)C(=O)C2CC(c3cccc(F)c3)=NO2)no1 (centres undefined),4.927,-9.257,-12.28
O=C1CC(c2ccc3c(c2)OCO3)c2cnn(C3CCCC3)c2N1 (centres undefined),3.366,3.183,-14.97
c1cncc(N2CCOCC3(CN(Cc4cccs4)CCO3)C2)c1 (centres undefined),0.627,-42.56,-12.94
CCN(CC)C(=O)c1nc2c(s1)CCN(Cc1cccc(OC)c1)CC2,3.273,-20.7,-3.345
CO[C@@H]1CC[C@H]2[C@H]1OCCN2S(=O)(=O)C1CC1,3.42,-22.43,-14.42
COCCCC1CCCN(C(=O)CCc2csc(N)n2)C1 (centres undefined),9.527,6.637,11.84
CCOCC(=O)N(C)Cc1nc(C(F)(F)F)cs1,3.872,12.03,-7.371
Cc1ccc2c(c1)c(CNC(=O)C1CC(=O)N(CCN(C)C)C1)nn2C (centres undefined),0.566,-16.11,13.59
Cc1nccn1-c1ccc(=O)n(CCNC(=O)Cc2ccccc2)n1,2.535,-10.96,-11.02
CCOCC1CN(CCN2CCCCC2)Cc2cnn(C)c21 (centres undefined),-1.324,-16.65,11.69
CC(Nc1ccc(C(F)(F)F)cc1C#N)c1cccc(S(N)(=O)=O)c1 (centres undefined),8.669,-4.383,-0.5565
CNC(=O)c1cc2c(nc1N(C)C)CCN(c1ncccn1)CC2,4.719,-5.63,6.766
c1cc(COC[C@@H]2CCC[C@@]23CNCCO3)ccn1,-1.898,-16.1,5.215
c1ccc2c(c1)COC1(CCCCC1)N2,-1.507,-7.355,-13.72
COc1cc(F)ccc1-c1nc2c([nH]1)c(C1CC1)nn2C,3.506,-23.26,1.015
Cn1cnc(S(=O)(=O)NCC2(O)CCOc3ccccc32)c1 (centres undefined),5.245,-4.952,-9.294
CCn1c(C)nnc1CN(C)C1CCN(CCS(=O)(=O)CC)C1 (centres undefined),0.4877,-5.175,-52.25
Cc1ccc(CN(CCN(C)C)Cc2ccnn2C2CCCCO2)o1 (centres undefined),1.931,8.507,-4.842
CC(C)Cc1cc(C(=O)NCC2CCCN(c3ccccn3)C2)on1 (centres undefined),4.145,-37.47,1.591
Cc1noc(C2CCCN(C(=O)c3cc(Cl)cn3C)C2)n1 (centres undefined),1.494,-26.99,4.4
CC(C)C(C#N)N1CCN(Cc2nccn2CC(F)(F)F)CC1 (centres undefined),-2.123,-13.45,-1.219
N#Cc1cccc(NC(=O)N[C@H](CO)c2ccccc2)c1,-1.087,-19.22,-7.738
OC1CCN(Cc2ccc(CNc3ccc(Cl)cn3)cc2)CC1,7.368,-21.72,-5.458
COC(=O)COc1nc(C(C)C)no1,5.079,-0.6199,-9.322
O=C(c1ccoc1)N1CCOCC2(CCN(Cc3cccs3)C2)C1 (centres undefined),-2.5,-9.872,-16.24
CCOCCN(C)C(=O)Nc1cccc2c1CCN(CC)C2,5.116,-10.51,6.843
Cc1cccc(-c2cccc(CC3(C(=O)O)CCOCC3)c2)c1,2.978,-2.195,11.29
Cc1noc(C)c1-c1ccc(C2CCCN2C(=O)c2cccnn2)nc1 (centres undefined),-1.359,-28.72,26.54
Cc1ccn(-c2cccc(C(=O)N3CCCC(n4ccnc4C)C3)c2)n1 (centres undefined),6.293,-5.05,-5.096
c1ccc(COC[C@H]2CC[C@H]3[C@H](CCN3Cc3cccs3)O2)nc1,3.916,-6.86,-4.324
CCCn1cc(-c2cc(C(=O)N(C)C)c3cccc(C)c3n2)cn1,4.216,26.95,-14.74
c1ccc(N2CCC(NCCc3ccc(-n4cccn4)cc3)CC2)nc1,-5.901,-,9.622
NC(=O)CN1CCCC(C(=O)N2CCC(O)(Cc3ccccc3)CC2)C1 (centres undefined),-0.1626,5.562,8.949
CC(=O)N1CCc2nc3sc(C(N)=O)c(N)c3c(C(F)(F)F)c2C1,2.181,-22.86,-16.06
CC(C)NC(=O)N1CCc2ncnc(-c3ccncc3)c2CC1,4.526,-0.2649,1.317

Some entries from above, unchanged:

{"compound": "CN(Cc1ccccc1O)C(=O)Nc1cc(F)cc(N2CCCC2)c1", "PfKRS1": 2.397, "Pks13 thioesterase": -3.996, "ClpP1P2": 4.974}
{"compound": "Cc1ccc(CN(CCN(C)C)Cc2ccnn2C2CCCCO2)o1", "stereo": "centres undefined", "PfKRS1": 1.931, "Pks13 thioesterase": 8.507, "ClpP1P2": -4.842}
{"compound": "Cc1nn(C)c(N2CCOCC2)c1CNC1CCc2ccccc2C1", "stereo": "centres undefined", "PfKRS1": 12.62, "Pks13 thioesterase": -34.41, "ClpP1P2": 4.699}
{"compound": "c1cncc(N2CCOCC3(CN(Cc4cccs4)CCO3)C2)c1", "stereo": "centres undefined", "PfKRS1": 0.627, "Pks13 thioesterase": -42.56, "ClpP1P2": -12.94}